Experimental data as given in PubChem BioAssay AID1508600 (Functional Genomics Laboratory (NCATS/FGL), 2020).
Hit rate of the full screen: of about 53,000 sequences, about 3,700 (7%) were called active.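 The calls were made as follows: active = gene knockdowns whose robust z-score for IL-1 alpha signal is at least 2 or at most -2, so actives lie on both sides; inactive = the rest.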 This is one part of the list.

test: Components of the Cytosolic LPS Sensing Pathway: Gene Identification via Genome-wide siRNA Screen; settings: RAW264.7 macrophages, IL-1a HTRF, actives lie on both sides, screened at 100 nM (by protocol), cells primed 5 h with Pam3CSK4 first;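 also: robust z of the log signal after scaling to non-targeting control siRNA wells of the plate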
In short: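 Using IL-1a HTRF as read-out, the screen measured release from RAW264.7 cells after 48h siRNA knockdown (100 nM), 5 h Pam3CSK4 priming and 24 h cytosolic LipidA. Values were expressed relative to negative-control wells as robust z-scores.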

z-score, active:
GGAGAAGUUUAGUGAAGAATT against Rmdn2 -2.48, GCCACGACAACAAAUCCCATT against Lbr -2.62, UAGGAGAUAUCUGCUACCGTT against Fbxw16 -2.53, GGCUGCAUGGUACAGAUCUTT against Olfr463 -2.33, GGUCUGUGGACUGAACUUATT against Bcl2l11 -2.6, GCUGUUCCACAUUGAAGUGTT against Pcdh18 2.84

z-score, inactive:
GGAGCCACAUGAAACACUATT against Reep6 -1.09, GGCCAGAAAUGUACAUACATT against Map4k5 -0.297, UAUCCACUUUACCUUUGUATT against Zscan26 1.29, GGCCAAGAAGGAAAGGGAUTT against Atp1a1 0.106, CCUAGAUUCGGACAAGGAUTT against Kctd5 -0.424, GGGAUGUAUUAGUGAAAGGTT against Dmpk 0.368, GCCGUAUGAAUCCUACACATT against Vps26b 0.201, GGCUCUUGCCAGAAUUAACTT against Emc6 0.289, CGAGUACGCUCUGCUAUUCTT against Ptgds 0.265, GGCAGUCUUCUAGUAAGAATT against Cbr4 -0.502, GGUUACGUCUACGACUGGATT against Scml2 -1.18, GCUGCCAAAAGAUCUCGGGTT against Nfil3 0.24, GCUGUUUCGGAUUUGGAGATT against Mpc2 -0.579, GCUAAGGACUGAGGUGCUUTT against Sf3b6 -1.7, CGAUGUAUUGUUAUUGCCATT against Lrp10 0.598, GGCAGAGACACAAGUCACUTT against Adam3 -0.156, GGUAAAAAGUUUUGGGAAATT against Pum1 -0.0523, GGGUCGUUGGCAUCAUCAATT against Rps6kl1 -0.362, GGUUUUCACUGUGAAUUUGTT against Plscr1 1.17, GCUGUACGAGCCCUGAUGATT against Cldn18 -0.62, GGAAAGUAUGUCCAUUCUATT against Tnfrsf1a 0.429, CGUCCAUAAGCAGGUGUGUTT against Cops6 -0.0356, GGAAGAAACUGGCUACAAATT against Nudt5 -1.04, GGGUUCUUUCCAAAGUUACTT against Dennd5b -0.154, CGACCAAUGGGCGUAAUCATT against Obox3 1.25, GGACUCAAAAAAGCAACGUTT against Tpbpb -0.467, CCCAACAAAUACCACUACATT against Usp20 -1.39, GGCUGCUUGGUGUCAUUUUTT against Mrps34 -0.266, GGGAAUGCAAGACUUCAAUTT against Cpn1 -0.166, CCUUCUAAAUACUGAUUUGTT against Ugt2b38 0.699, CCUUCGUGUUCACUUUAAGTT against Rpl17 -1.5, CCAAGUCAAGUAACCCUUATT against Fgf4 0.198, CCAUCAAGCGAUUUGUGGUTT against Rnf103 -0.156, GGGAAUGGUUCGAGGAAAATT against Trex1 -0.536, GGUUGAAUCAGGCAUCAUUTT against Sypl 0.617, GGGCUACACAAGUCCCUAUTT against Hoxd13 0.739, GCGGCAUACUCCAACUUCUTT against Colgalt1 -0.295, GGAGAAGAAACAAAAACCUTT against Ktn1 -1.16, GGGAUUAAAGAUUUGGUUGTT against Efcab1 0.999, GGUUGUUUAGCCAGUGCACTT against Spryd7 -0.496, GGACACUAUACAAAUUUCGTT against Fank1 -0.109, CCUACACUAAAAUUCACCATT against Muc15 -0.549, GGAACCAUGGCAGUGCAUCTT against Dlk1 -1.79, GGCCAGUGAGCAGCAUUAUTT against Krt222 0.787, CGUGGAUAAAAUUAAGUAGTT against Pdlim2 0.733, GGGUUCUCAAGGUUGCAUUTT against Frs3 1.15, CGUAGAUGUCCUAGAAUUGTT against Rundc1 1.37, GCUUCUUCAAGAGUAUAAUTT against Gad2 -0.443, CCCAACAUUAUCUUGGACCTT against Mrgpra8 -0.26, CGGUGCAUACUCAAUAAACTT against Spag11a -0.607, GGAGCUUCUGGAGUAUUAUTT against Ccdc77 0.0652, GGCUGUAUCUCAUCUUUGATT against Cdk1 -0.607, GCACAUCUUGGACCGUUUCTT against Lhx3 0.851, GCGUGUUUGCCUCGGCAAATT against Ahdc1 0.61, CCUGUUGAGUGACCUAAGGTT against Ap5b1 1.28, CCGUAAAACCAUGAAGAAGTT against Pdzd4 0.33, CCUAGUUUGGUGAUGAUGUTT against Atg10 -0.262, CGGUAAUGGGUAUCCUUUGTT against Olfr620 0.481, GGAAGCAACUUGGAAUUUGTT against Ctnna3 0.886, GGUUUUGGUAUAGAUACUUTT against Phxr4 -0.548, GGGCAUAACGUGUUCACAUTT against Sptssb -0.31, GGUCCACAUAUCUGACUGATT against Calm5 0.153, GCUCAGACAGCUUCGACAUTT against Ano7 -0.842, GGAGAGUGCUCAAUAAGACTT against Mtfr1 0.46, GCCUAGAAAGUUCUAUGUUTT against Fcho1 -0.632, CCAUAUAUCUGAUCACACUTT against Olfr832 1.59, CGAUUGAUGAAUCUGGUUCTT against Racgap1 -0.31, CGACACCAGUCUCAAUGAATT against Olfr368 -0.158, CCUGAUGGAUGAUGAAUCATT against Trap1a -1.42, CCUCAAGUCUGUGAAGAAATT against Tnni1 1.11, GGAUUCUGGGCUGAAUGGGTT against Pcdh18 -0.491, GAUCAUCACAGAGGUCCAGTT against Fabp6 0.308, GCUAGAAGCCUGACAUUUUTT against Tbca -0.538, GGAUGAACUCAUGAGAGCCTT against Cyb5r4 -0.323, GGAGCCUCUAGGAAACAAATT against Slc28a3 0.309, GCCACUUAGAAAACCGUGUTT against Cox7a1 -0.0911, CCGAAAUAAGGCUAGCUCATT against Rfx6 -0.282, CCUAGCAUGUUUCUUGCUATT against Rnft2 0.46, GGAAGAGUAAAGGAGAUUUTT against Spop -0.548, GGCCUCAAACUGAAUAUUATT against Serpina7 0.472, GGAAGAUGAAGAUGAGAAUTT against Igbp1b -1.24, GGAACAGGGCAGUAAGACCTT against Dhcr24 0.738, GCAGGCCUAAGCCCAUUGATT against Vmn1r46 0.951, GGCCCUCAAAAAUCACGAGTT against Ehd1 1.11, CCGGUACCUCAAUUCAACUTT against Skida1 -0.686, GCUCGAUUUUAAGCAUAUGTT against Snx33 1.77, GGAUUCUGACAAAACUGGATT against Nt5c1b 0.809, GGACACAAAAGUUCACAUUTT against Smpx -0.421, GCGAUGUGGCCUAAAUAGGTT against Igfals 0.665, GGACAGUCAUUACCAAAAATT against Topors -1.97, GGAAGAGAGAGACAAGGAUTT against Dap 1.38, CCUUUUUCUGGAUUGGAAUTT against Klrd1 -0.00525, GCAUAGUGAACACAAACGGTT against Rgs14 -0.537, GCUGGUUAUUCUCUUAUAGTT against Cavin2 1.97, GGUGAUAUAUCCAUCAAAATT against Rbm43 1.23, GGGAGAAAAAGGCAUUUUUTT against Them5 0.46, GGACAAGGCCUAUAGACCUTT against Vmn1r70 1, GUACAACCACUAUGGCGACTT against Mfap2 -0.155, GGUUUAAGCACUACAGUGATT against Bod1 0.254, GGUAAAGAAGAUCGACAGCTT against Adrb1 -0.785, GCAUAUUCUUCCAACUUCCTT against Sp8 -1.8
